No constants are given. Whether binding was seen depends on the method and setting. In cells and extracts the contact can be indirect. Some results given as binding are weak or reduced against the parent protein; the word gives no strength.

By UniProt entry, the sequences of proteins in these tests, tags left out.
UniProt Q9UJW0: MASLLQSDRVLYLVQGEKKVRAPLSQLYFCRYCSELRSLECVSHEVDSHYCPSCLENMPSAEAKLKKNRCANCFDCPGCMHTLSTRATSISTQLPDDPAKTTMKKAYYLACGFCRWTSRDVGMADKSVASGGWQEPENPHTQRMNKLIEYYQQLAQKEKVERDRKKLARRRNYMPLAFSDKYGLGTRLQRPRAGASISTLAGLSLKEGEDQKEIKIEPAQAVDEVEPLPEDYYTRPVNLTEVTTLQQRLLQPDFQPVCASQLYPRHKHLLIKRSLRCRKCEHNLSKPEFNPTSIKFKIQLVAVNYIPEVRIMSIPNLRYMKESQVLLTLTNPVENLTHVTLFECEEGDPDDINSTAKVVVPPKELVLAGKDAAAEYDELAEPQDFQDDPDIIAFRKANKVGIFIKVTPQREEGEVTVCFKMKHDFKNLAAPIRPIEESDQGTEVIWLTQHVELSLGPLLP
UniProt Q13561: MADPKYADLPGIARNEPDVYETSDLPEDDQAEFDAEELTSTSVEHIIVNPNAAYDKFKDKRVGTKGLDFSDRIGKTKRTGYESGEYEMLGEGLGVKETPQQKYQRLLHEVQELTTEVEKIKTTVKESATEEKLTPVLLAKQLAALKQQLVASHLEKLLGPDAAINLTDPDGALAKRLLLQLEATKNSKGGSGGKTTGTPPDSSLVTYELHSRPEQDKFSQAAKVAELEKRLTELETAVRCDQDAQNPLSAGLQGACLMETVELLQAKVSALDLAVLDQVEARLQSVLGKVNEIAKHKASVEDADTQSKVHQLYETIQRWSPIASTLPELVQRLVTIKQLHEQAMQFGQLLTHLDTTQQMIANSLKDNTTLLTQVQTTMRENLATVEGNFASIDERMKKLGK

The target in this test is dynactin p62 with C-terminal Twin-Strep affinity tag (bait for the dynactin complex) (UniProt Q9UJW0). Briefly: pull-down; p62-TwinStrep expressed in HEK293F as bait, clarified lysate on streptactin beads 120 min at 4 °C, eluted with 2.5 mM d-desthiobiotin, Superose 6 SEC; subunits identified by SDS-PAGE and Western blot. A general note: In western blotting, separated proteins are transferred to a membrane and probed.

In the case of “dynactin p50 (from UniProt Q13561 1-401)”, the binding entry was “binds”.
Then “dynactin p150 (from UniProt Q14203-1 1-1278)”, with “binds”.

The values above are taken from publication PMC10662051.
